In paper PMC8282249:
Results are given in words; binding and its absence hold for the method and conditions named. In cells and extracts the contact can be indirect. Some binding calls cover weakened binding; strength is not graded here.

Chains of the proteins cited; added tags and fusions are not shown.
UniProt P15976: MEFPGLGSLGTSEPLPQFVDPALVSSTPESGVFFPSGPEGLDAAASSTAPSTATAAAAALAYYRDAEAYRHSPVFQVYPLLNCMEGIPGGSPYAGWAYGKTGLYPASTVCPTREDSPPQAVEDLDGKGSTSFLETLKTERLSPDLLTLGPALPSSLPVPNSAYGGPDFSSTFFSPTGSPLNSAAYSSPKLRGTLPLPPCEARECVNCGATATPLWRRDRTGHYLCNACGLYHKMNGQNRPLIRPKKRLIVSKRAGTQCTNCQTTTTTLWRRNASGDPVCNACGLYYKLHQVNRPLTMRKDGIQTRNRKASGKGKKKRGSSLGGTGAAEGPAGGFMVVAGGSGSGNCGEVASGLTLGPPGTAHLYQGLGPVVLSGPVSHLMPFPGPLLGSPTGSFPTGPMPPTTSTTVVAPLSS
UniProt Q8N6T7: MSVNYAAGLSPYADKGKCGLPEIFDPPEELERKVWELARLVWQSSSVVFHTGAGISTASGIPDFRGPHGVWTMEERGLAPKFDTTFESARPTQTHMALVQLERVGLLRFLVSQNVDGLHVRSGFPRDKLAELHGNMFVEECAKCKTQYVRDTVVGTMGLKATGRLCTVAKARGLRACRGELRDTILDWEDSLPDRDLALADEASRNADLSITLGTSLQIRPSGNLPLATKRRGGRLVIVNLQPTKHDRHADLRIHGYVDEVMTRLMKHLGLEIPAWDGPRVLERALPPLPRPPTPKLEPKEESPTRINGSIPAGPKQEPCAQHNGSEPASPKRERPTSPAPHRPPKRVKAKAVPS
UniProt Q09472: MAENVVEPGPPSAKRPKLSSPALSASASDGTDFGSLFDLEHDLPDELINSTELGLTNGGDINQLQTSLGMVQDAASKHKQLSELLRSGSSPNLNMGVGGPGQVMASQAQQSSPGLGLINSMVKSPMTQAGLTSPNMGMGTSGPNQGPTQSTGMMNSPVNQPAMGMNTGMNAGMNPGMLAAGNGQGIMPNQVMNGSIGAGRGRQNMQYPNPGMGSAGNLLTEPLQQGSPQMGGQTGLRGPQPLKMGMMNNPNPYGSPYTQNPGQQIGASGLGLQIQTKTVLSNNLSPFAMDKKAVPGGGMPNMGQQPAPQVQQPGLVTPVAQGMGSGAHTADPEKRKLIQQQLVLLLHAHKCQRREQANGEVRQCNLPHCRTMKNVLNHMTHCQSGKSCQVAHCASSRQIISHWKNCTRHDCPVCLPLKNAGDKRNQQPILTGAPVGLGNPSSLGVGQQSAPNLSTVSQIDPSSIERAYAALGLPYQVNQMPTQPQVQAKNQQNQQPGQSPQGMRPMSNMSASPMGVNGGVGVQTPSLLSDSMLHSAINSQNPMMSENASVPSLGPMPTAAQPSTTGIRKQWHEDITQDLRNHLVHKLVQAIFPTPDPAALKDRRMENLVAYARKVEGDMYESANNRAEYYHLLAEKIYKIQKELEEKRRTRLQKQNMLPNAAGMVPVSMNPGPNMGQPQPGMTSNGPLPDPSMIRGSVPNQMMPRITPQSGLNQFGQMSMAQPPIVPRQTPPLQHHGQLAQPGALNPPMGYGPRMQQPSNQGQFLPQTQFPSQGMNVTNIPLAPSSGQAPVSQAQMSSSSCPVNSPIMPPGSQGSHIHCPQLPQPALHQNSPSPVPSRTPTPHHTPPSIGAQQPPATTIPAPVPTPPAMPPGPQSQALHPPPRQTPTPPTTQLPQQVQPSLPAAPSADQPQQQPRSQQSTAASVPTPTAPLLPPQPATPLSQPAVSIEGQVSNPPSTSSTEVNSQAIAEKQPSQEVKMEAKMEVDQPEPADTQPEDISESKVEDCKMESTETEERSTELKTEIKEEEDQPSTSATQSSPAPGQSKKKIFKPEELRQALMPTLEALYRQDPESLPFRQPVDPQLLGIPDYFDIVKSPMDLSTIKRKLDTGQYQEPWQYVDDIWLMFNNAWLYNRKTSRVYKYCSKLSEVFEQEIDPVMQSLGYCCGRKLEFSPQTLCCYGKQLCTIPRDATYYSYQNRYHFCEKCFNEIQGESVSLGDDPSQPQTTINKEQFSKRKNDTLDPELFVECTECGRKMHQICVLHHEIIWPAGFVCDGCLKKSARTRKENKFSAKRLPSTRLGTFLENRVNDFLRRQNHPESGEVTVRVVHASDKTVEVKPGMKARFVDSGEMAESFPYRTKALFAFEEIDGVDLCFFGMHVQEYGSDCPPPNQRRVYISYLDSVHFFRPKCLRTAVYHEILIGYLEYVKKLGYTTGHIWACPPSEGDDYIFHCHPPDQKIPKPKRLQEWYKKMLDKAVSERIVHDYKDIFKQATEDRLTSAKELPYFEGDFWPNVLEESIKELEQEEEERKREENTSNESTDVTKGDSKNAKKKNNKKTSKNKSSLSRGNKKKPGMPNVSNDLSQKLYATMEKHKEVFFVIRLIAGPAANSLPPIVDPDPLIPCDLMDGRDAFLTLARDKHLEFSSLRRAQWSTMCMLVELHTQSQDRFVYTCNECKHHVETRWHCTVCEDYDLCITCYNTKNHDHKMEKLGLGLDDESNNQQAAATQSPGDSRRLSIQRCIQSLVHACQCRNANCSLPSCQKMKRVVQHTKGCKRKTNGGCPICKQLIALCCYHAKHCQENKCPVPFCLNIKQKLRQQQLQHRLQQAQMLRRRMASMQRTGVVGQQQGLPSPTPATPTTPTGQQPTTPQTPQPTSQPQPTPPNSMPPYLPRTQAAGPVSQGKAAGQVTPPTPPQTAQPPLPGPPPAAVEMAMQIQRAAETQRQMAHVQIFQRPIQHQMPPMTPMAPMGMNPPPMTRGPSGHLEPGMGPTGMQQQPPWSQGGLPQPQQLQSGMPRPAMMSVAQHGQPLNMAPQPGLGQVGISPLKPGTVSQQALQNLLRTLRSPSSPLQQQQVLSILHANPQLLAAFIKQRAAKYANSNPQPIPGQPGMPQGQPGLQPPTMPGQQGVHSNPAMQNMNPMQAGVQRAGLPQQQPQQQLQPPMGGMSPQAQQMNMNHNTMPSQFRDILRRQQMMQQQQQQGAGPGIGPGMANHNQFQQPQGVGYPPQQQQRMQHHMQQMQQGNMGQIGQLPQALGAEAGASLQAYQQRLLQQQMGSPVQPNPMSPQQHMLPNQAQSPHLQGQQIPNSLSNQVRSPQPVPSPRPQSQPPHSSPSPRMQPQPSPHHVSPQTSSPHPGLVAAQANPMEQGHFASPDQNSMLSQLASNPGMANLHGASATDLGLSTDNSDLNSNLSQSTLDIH

Molecular target: GATA-1 in AML14.3D10 cells (UniProt P15976)
Experiment: co-IP; AML14.3D10 human eosinophil cell line, differentiated with 0.4 mM butyric acid, cells of day 7

Row | Substance | binding
1 | Sirt6 in AML14.3D10 cells (from UniProt Q8N6T7 1-355) (enzyme) | binds
2 | p300 in AML14.3D10 cells (from UniProt Q09472 1-2414) (enzyme) | binds
